Library screening results

Data taken from ChEMBL document CHEMBL3988442, “University of Dundee, Small-Polar-MMV Screening Library” (2021).

Values are the deposited “Percent Effect”, in %.
The record does not define 0% and 100%; most values in the screen are far below 50% and negative numbers occur (in some assays of this library far below -100).
Compounds were drawn at random from those tested, without regard to their results.
A dash means the value is not listed here; it may have been measured.

Mtb growth Cornell: 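Whole-cell assay for inhibitors of Mycobacterium tuberculosis growth, labelled Cornell in the record; the read-out is not stated. The concentration is filed as 10 mM, unlikely as a test dose, so the dose is not known. Higher means stronger inhibition (inferred from two other growth screens of the library). About 53,000 compounds were tested under these conditions; 1.7% (about 900) showed 50% or more at least once.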
Mtb heat-shock: 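Assay on Mycobacterium tuberculosis, filed only as a heat shock assay from Cornell; the read-out is not stated. The concentration is filed as 10 mM, unlikely as a test dose, so the dose is not known. Direction is inferred from retests: higher values go with stronger inhibition. Of about 69,000 compounds tested this way, about 930 (1.4%) reached 50% or more in at least one test.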

SMILES	Mtb growth Cornell	Mtb heat-shock
CC(C(=O)NC(N)=O)N(C)CCCc1cc(-c2ccccc2)no1 (centres unmarked)	-	-9.102
Cn1cc(CC2CCN(C(=O)NCCCc3ccc(O)cc3)C2)cn1 (centres unmarked)	-	-7.713
CN(C)S(=O)(=O)N1CCCC1c1cccc(-n2ccnc2)n1 (centres unmarked)	-	-11
COc1ccnc(N2CCC(OCCN3CCCCC3)C2)n1 (centres unmarked)	3.636	2.013
CCN(CC)c1nc(Nc2cccc(C(=O)O)c2)nc2ccccc12	-13.69	-2.465
CSc1ccc(C(CC(=O)O)NC(=O)c2cc(C)on2)cc1 (centres unmarked)	-	-2.398
Cn1cc(CN2CCCC(O)C2)c(-c2ccccc2F)n1 (centres unmarked)	0.855	14.46
CNc1cc(C)nc(C2CN(Cc3cc[nH]n3)CCO2)c1 (centres unmarked)	3.284	-4.837
Cn1cccc1C(=O)N1CCC2(CCN(C(=O)c3cccnc3)C2)CC1.O=C(O)C(F)(F)F	2.171	11.74
CC(C)CCOCCNC(=O)Nc1ccc(F)c(C(N)=O)c1	-	-0.08705
CC(=O)NCCNC(=O)c1sccc1Br	20.96	-4.638
CNC(=O)c1c(C)cccc1NCC(=O)Nc1cc(C)nn1C	24.68	-7.466
Cc1ccc(C(=O)NCC(O)CN2CCCC2=O)c(C)c1 (centres unmarked)	-20.58	-3.323
O=C(O)C(F)(F)F.O=C(c1cccs1)N1CC[C@@H](N2CCOCC2)[C@@H]1Cc1ccccc1	4.575	-9.427
CC(C)(C(=O)NCC(=O)NC1CC1)c1ccccc1F	12.48	4.321
[H][C@@]12CN(C(=O)CO)C[C@]1([H])[C@@H]2CC(=O)Nc1cccnc1	-30.71	0
CN1CCc2c(NC(=O)NCc3ccccc3Cl)cccc21	6.549	16.73
CCCc1nnc(N2CCN(c3cccc(C)c3C)CC2)o1	41.39	-2.467
CSCC(=O)NC1(c2cccc(Cl)c2)CC1	30.35	-5.758
Cc1ccc(F)c(NC(=O)CCC(=O)N(C)Cc2nc(C)c[nH]2)c1	8.878	-29.38
Cc1ccc(Cn2cc(Br)c(NS(C)(=O)=O)n2)cc1	-	9.854
Cn1ccnc1-c1noc(NCc2ccc(Cl)cc2)n1	21.06	-1.525
Cc1nc(CN2CCCCC2Cn2cncn2)nc2ccccc12 (centres unmarked)	-	-16.52
Cc1nccn1CC1CCCN(C(=O)Cc2ccsc2)C1 (centres unmarked)	-16.7	-30.18
O=C(O)C(F)(F)F.O=C(O)C(F)(F)F.c1cncc(COC[C@@H]2CCC[C@]23CNCCO3)c1	-0.4149	23.86
CC(C)NC(=O)c1nc(Cn2c(C(F)F)nc3ccccc32)no1	-27.22	-4.249
COCC(=O)NCc1cccnc1-n1cnc2ccccc21	-	20.78
c1cncc(-c2nc(C3CC3)ncc2-c2ccnc(N3CCCC3)n2)c1	33.27	-5.036
O=C(O)C(F)(F)F.O=C(O)C(F)(F)F.[H][C@]12CCN(Cc3cccs3)[C@@]1([H])CC[C@H](COCc1cccnc1)O2	-	-3.314
Oc1cc(CCC2CCCCN2)cc(-c2ccncc2)c1 (centres unmarked)	-19.74	-11.03
Nc1nc2nc(C3CCCN(C(=O)c4cscn4)C3)ccc2s1 (centres unmarked)	-	-23.37
CCN(CCN1CCCCCC1)C(=O)c1cnc(-c2cccnc2)nc1	-1.623	1.727
O=C1CC(c2ccccc2)c2cnn(C3CCCC3)c2N1 (centres unmarked)	4.352	1.173
CCc1cnc(CNc2ccc(C(=O)NCc3ccco3)cc2C)o1	38.47	13.37
CCNC(=O)NC(=O)CNc1cccc(C(=O)c2ccccc2)c1	-	9.112
Cc1cc(NC(=O)NCCc2ccsc2)n(C)n1	22.08	63.69
Cc1cc(N2CCOC(c3ccc(C(N)=O)cn3)C2)ncn1 (centres unmarked)	-8.542	8.481
Cc1cc(N2CCN(Cc3ccc(C)o3)CC2)cc(C)n1	28.19	-8.314
O=C(O)C(F)(F)F.[H][C@]12CC(CN3CCCC3)N(C(C)=O)[C@@]1([H])CCN(C(=O)c1ccoc1)C2 (some centres unmarked)	5.21	-8.828
CN(C)C(=O)c1cnc2n1CCN(Cc1cccc(C#N)c1)C2.O=C(O)C(F)(F)F	13.95	-8.538
CN(C(=O)c1cccc(NCc2cccs2)c1)C(C1CC1)C1CC1	-	16.51
COC(=O)CNC(=O)C12CCC(=O)N1c1cc(Cl)ccc1S2 (centres unmarked)	23.21	5.167
O=C(O)C(F)(F)F.O=C(O)C(F)(F)F.O=C(c1n[nH]c2c1CN(C1CCOC1)CC2)N1CCCC1 (centres unmarked)	15.36	-3.289
CCCn1ccnc1-c1nccn1CCC(N)=O	-17.28	10.75
Nc1nc(CN2CCN(c3nccs3)CC2)cs1	-14.93	-17.13
[H][C@@]12CS(=O)(=O)C[C@]1([H])N(CCCc1ccccc1)CCN2C(=O)N(C)C	-	-2.966
CC(C)CCCNC(=O)Nc1ccc(F)c(C(N)=O)c1	-8.199	43.03
CN(Cc1nnc(C2CC2)n1C)C1CCN(Cc2ccccc2)C1 (centres unmarked)	104.3	-16.48
CC1(C)OCC(CNC(=O)c2cnn(-c3cccc(Cl)c3Cl)c2N)O1 (centres unmarked)	-31.31	14.79